Like-named read-outs stand apart in the source and are kept apart here. Results are given in words; binding and its absence hold for the method and conditions named. For part of these data: Binding seen in cells or lysates may run through a third protein. Some binding calls cover weakened binding; strength is not graded here. Sequences can lack the tags named with a protein. Blank lines part the entries; values can stand above or below the molecule they belong to.
Assays:
[1] = target: T1, CPK5, cLuc fusion for the split-luciferase assay (Arabidopsis thaliana) (UniProt Q38871); assay: split reporter
T1 sequence: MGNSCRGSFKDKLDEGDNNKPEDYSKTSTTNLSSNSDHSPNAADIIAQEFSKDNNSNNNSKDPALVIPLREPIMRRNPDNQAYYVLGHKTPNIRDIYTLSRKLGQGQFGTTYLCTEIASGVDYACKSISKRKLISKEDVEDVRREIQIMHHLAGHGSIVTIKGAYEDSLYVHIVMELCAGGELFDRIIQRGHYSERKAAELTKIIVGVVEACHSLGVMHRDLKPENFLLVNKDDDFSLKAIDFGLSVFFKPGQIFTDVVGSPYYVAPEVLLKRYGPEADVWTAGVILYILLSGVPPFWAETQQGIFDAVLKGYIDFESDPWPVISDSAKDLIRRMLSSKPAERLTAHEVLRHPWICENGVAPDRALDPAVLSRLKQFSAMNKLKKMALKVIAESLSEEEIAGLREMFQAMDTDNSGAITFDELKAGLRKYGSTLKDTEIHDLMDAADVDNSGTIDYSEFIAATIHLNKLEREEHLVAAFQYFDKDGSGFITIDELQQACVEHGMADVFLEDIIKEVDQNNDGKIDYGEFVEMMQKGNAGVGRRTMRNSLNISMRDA

Sequences of proteins named here, by UniProt entry; tags and fusion partners are left off.
UniProt P49597: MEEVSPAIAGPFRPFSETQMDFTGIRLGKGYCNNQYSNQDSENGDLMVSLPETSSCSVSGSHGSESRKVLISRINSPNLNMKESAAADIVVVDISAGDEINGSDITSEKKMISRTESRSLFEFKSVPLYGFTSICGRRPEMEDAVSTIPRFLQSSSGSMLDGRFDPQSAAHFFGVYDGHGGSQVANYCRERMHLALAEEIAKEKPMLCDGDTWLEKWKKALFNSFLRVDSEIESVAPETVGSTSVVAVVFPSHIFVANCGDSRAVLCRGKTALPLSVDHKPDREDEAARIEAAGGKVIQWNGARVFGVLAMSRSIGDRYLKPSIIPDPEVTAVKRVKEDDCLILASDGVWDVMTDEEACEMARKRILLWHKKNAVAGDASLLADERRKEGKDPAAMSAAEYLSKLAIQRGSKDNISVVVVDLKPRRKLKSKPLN

[2] = target: T2, calcium-dependent protein kinase 5 (CPK5), full-length, yeast two-hybrid fusion (Arabidopsis thaliana) (UniProt Q38871); assay: two-hybrid
T2 sequence: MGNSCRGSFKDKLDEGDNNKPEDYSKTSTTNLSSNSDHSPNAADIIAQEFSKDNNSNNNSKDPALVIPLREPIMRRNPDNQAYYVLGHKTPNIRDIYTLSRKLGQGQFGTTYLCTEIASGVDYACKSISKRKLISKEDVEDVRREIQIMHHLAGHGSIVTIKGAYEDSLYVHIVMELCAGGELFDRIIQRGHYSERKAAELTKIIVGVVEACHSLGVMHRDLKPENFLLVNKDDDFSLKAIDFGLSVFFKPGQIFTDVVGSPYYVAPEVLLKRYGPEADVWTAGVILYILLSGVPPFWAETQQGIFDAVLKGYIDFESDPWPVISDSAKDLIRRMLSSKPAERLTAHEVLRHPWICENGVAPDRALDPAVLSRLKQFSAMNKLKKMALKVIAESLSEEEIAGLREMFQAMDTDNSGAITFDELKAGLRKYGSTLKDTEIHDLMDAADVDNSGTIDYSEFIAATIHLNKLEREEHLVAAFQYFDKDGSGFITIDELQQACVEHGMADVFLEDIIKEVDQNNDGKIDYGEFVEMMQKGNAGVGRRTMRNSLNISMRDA

[3] = target: T2, calcium-dependent protein kinase 5 (CPK5), full-length, yeast two-hybrid fusion (Arabidopsis thaliana); assay: two-hybrid; remark: listed apart in the source

Molecule: ABI1, nLuc fusion for the split-luciferase assay (from UniProt P49597 1-434)
binding [1]: binds

binding [2]: binds
Molecule: ABI1, yeast two-hybrid fusion (from UniProt P49597 1-434)

binding [3]: binds weakly
B1: HAI1, yeast two-hybrid fusion (protein, UniProt Q9FIF5 1-413)
chain: MAEICYENETMMIETTATVVKKATTTTRRRERSSSQAARRRRMEIRRFKFVSGEQEPVFVDGDLQRRRRRESTVAASTSTVFYETAKEVVVLCESLSSTVVALPDPEAYPKYGVASVCGRRREMEDAVAVHPFFSRHQTEYSSTGFHYCGVYDGHGCSHVAMKCRERLHELVREEFEADADWEKSMARSFTRMDMEVVALNADGAAKCRCELQRPDCDAVGSTAVVSVLTPEKIIVANCGDSRAVLCRNGKAIALSSDHKPDRPDELDRIQAAGGRVIYWDGPRVLGVLAMSRAIGDNYLKPYVISRPEVTVTDRANGDDFLILASDGLWDVVSNETACSVVRMCLRGKVNGQVSSSPEREMTGVGAGNVVVGGGDLPDKACEEASLLLTRLALARQSSDNVSVVVVDLRRDT

Reference: paper doi:10.1101/2023.07.20.549975
